Structures are written as SMILES.

We go through one compound from PMC3303072 (Cell Biology and Toxicology, 2012).

The nature of this series: in vitro. Conditions: human, Cytotoxicity class by LC50.

`CCCCc1oc2ccccc2c1C(=O)c1cc(I)c(OCCN(CC)CC)c(I)c1` [amiodarone]: the CC50 (usually the concentration that lowers cell viability or growth by half) fell in the range of 50 to 100 µM.
